Experimental data: PMC9139026

Test system: C/EBPα
Assay: EMSA
Settings: LightShift Chemiluminescent EMSA Kit per manufacturer; pH and temperature not stated; protein in an extract; label: 5' biotin

Sequence: CATGCTTCATGTCGAAACAGACAAATGATG (double strand) [L. crocea fads2 promoter C/EBPα probe]
- binding result: binds

Sequence: AGAGTCACACCATTTCACCACGTAGGTGTG (double strand) [O. mykiss fads2 promoter C/EBPα probe]
- binding result: binds

For at least one entry, the source does not settle the construct or the ends of the probe. Where cells or extracts were used, other partners may take part. At least one verdict was read from the data and is not stated in words by the source.
